Laboratory results as given in PMC9293949.
Results are given in words; binding and its absence hold for the method and conditions named. In cells and extracts the contact can be indirect. Some results given as binding are weak or reduced against the parent protein; the word gives no strength. Values belong to the molecule of their own block, whether it stands above or below them.

Sequences of proteins named here, by UniProt entry; tags and fusion partners are left off. A change or cut given only in a name is not applied to a line headed by its entry.
UniProt O60674: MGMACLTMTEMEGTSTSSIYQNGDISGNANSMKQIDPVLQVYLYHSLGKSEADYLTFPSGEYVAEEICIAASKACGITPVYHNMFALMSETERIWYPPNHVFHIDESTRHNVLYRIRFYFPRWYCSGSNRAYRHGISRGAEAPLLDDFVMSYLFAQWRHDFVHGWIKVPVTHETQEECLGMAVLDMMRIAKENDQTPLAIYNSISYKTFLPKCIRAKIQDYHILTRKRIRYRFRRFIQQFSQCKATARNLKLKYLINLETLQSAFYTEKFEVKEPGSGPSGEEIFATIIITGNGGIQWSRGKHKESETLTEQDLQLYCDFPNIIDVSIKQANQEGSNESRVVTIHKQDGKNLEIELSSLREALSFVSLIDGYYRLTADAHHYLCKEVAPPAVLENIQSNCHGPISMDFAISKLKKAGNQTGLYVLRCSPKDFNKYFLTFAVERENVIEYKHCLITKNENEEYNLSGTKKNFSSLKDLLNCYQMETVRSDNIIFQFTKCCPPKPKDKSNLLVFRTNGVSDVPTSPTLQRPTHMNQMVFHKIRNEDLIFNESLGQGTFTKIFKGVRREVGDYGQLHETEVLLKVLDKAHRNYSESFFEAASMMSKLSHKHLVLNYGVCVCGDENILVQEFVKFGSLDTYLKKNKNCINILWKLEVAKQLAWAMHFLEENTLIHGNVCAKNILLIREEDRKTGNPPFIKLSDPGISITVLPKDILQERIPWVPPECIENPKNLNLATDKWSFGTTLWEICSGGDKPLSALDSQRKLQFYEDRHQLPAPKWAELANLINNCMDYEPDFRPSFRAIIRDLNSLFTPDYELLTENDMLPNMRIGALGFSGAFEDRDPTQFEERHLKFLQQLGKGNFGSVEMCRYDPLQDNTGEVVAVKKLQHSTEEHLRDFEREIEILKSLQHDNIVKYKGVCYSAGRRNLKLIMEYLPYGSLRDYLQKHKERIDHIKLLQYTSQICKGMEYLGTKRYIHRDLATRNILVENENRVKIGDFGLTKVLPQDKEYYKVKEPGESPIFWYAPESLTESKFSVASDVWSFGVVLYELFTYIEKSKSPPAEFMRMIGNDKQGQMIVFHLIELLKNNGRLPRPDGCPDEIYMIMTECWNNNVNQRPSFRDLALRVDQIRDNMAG
UniProt O14777: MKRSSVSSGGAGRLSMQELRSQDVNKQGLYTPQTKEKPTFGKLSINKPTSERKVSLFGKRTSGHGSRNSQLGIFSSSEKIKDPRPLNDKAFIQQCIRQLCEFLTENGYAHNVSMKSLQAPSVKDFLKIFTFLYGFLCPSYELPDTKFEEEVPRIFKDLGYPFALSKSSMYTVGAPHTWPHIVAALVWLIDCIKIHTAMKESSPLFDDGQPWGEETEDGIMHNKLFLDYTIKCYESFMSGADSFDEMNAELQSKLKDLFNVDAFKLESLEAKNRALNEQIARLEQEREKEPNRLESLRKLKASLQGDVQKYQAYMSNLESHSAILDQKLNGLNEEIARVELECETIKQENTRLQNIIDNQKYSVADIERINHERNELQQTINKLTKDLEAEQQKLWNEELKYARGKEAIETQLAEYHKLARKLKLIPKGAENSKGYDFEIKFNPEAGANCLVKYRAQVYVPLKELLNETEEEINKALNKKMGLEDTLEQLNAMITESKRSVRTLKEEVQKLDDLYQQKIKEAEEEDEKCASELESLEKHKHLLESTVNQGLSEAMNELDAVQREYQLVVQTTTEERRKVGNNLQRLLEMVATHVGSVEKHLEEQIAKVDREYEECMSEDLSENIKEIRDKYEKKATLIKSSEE
UniProt O96017: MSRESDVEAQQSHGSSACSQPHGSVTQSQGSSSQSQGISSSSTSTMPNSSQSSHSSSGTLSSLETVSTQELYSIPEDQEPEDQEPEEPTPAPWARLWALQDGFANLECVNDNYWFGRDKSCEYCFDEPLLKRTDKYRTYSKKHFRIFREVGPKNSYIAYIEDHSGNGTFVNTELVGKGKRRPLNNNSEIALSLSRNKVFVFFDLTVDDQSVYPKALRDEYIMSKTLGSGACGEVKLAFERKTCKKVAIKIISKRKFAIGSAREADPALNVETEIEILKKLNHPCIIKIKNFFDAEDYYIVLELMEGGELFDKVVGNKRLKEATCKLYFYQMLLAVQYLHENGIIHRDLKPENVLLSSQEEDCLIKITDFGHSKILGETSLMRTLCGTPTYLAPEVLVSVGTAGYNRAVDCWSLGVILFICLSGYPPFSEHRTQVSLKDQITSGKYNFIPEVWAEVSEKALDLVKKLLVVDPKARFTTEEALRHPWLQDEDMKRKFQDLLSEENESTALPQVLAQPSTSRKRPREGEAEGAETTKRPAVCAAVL

How the values were obtained:
[1] = target: T1, Mps1 (spindle assembly checkpoint kinase), coexpressed in HEK293T cells (UniProt P33981); test: co-IP; co-transfection of CHK2 (WT, Y156F or Y156E) and Mps1 in HEK293T cells; 50 ng/ml nocodazole overnight before collection
T1 sequence: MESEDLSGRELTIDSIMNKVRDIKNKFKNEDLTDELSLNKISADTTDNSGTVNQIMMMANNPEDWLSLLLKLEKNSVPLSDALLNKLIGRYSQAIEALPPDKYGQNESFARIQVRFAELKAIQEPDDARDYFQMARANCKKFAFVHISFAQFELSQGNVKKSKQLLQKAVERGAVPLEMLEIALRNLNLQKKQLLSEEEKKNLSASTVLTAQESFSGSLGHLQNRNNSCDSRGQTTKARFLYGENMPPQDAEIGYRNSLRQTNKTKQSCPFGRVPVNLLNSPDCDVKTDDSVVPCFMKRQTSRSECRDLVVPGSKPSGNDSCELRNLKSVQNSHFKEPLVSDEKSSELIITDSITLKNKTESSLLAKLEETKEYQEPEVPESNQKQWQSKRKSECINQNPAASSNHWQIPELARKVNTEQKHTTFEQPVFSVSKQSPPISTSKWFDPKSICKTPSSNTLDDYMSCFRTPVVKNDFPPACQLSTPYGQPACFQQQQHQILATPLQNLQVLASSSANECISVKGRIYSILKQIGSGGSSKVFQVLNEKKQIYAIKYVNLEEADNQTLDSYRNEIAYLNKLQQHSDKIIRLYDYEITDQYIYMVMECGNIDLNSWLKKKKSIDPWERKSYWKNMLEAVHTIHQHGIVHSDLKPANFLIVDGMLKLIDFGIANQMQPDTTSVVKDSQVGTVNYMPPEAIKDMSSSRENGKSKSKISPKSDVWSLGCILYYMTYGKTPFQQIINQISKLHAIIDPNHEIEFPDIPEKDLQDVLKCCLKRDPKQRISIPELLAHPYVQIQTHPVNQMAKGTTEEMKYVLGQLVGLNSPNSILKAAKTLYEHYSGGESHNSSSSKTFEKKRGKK

[2] = target: endogenous JAK2 in HeLa CHK2 KO cells stably expressing myc-CHK2 WT (human (endogenous in HeLa)) (UniProt O60674); test: co-IP; HeLa CHK2 KO cells stably expressing myc-CHK2 WT; IP with anti-JAK2 or anti-myc antibody; with or without nocodazole overnight (moderately increased by nocodazole); JAK2 inhibitor treatment also tested
[3] = target: HEC1 in HeLa CHK2 KO cells stably expressing WT or Y156F CHK2 (human (endogenous in HeLa)) (UniProt O14777); test: co-IP; HeLa CHK2 KO stable cell lines with WT CHK2 (#103) or Y156F CHK2 (#A2), nocodazole overnight; interaction higher in the WT line

binding [1]: binds
Molecule: CHK2 WT (checkpoint kinase 2), expressed by transfection in HEK293T cells (from UniProt O96017 1-543) (enzyme)

binding [1]: binds
Molecule: CHK2 Y156E (phospho-mimicking mutant), expressed by transfection in HEK293T cells (from UniProt O96017 1-543) (enzyme)

binding [2]: binds
Molecule: myc-CHK2 WT-FLAG, stably expressed in HeLa CHK2 KO cells (from UniProt O96017 1-543) (enzyme)

binding [3]: binds
B1: Mps1 in HeLa CHK2 KO cells stably expressing WT or Y156F CHK2 (enzyme, UniProt P33981 1-857)
chain: T1 sequence
